In PMC11331138, “Leveraging coevolutionary insights and AI-based structural modeling to unravel receptor–peptide ligand-binding mechanisms” (Proceedings of the National Academy of Sciences of the …, 2024):
These are yes or no findings as the source states them, for the method shown.

By UniProt entry, the sequences of proteins in these tests, tags left out. Where a name states a change or a piece, a line headed by the entry shows the natural chain unless it says otherwise. Chains listed by the source or under a name are the forms on record and can include a tag or linker.
MIK2 ectodomain S292A (S7 binding pocket variant) (Q8VZG8, form named): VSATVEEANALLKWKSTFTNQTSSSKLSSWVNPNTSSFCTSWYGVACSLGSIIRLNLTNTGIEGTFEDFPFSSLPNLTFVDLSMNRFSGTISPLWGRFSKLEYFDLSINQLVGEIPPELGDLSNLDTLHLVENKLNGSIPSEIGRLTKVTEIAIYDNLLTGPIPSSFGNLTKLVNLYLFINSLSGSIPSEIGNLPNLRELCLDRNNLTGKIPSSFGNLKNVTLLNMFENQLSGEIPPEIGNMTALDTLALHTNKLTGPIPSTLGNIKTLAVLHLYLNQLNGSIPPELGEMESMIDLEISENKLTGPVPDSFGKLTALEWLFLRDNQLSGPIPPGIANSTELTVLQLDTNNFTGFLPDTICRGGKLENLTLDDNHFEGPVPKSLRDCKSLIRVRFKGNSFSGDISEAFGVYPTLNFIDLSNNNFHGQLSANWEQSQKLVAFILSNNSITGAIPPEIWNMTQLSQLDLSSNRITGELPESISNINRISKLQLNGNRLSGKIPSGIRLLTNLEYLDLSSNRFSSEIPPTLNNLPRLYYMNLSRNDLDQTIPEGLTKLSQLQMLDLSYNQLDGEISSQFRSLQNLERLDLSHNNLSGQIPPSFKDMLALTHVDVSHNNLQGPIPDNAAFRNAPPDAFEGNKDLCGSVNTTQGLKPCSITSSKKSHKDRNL
MIK2 ectodomain D246G/N268A (S5 binding pocket double mutant) (Q8VZG8, form named): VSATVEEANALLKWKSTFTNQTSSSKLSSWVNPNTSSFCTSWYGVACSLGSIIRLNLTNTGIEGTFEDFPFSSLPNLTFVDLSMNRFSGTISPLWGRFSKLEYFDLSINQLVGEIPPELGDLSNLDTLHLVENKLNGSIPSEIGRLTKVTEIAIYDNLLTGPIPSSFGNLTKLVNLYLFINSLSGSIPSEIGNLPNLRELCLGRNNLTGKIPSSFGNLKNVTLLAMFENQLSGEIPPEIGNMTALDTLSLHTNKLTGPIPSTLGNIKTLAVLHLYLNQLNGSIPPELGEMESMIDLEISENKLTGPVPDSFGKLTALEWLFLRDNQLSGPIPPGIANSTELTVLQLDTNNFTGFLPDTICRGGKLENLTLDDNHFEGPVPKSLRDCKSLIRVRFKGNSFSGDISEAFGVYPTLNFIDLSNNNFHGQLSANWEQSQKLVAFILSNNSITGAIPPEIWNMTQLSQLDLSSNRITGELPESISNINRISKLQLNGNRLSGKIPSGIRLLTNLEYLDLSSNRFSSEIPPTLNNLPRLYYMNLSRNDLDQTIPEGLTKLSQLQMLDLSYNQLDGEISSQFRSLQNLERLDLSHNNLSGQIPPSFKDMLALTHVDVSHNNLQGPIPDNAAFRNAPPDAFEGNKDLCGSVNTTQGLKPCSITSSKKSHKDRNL
MIK2 ectodomain D246G (S5 binding pocket variant) (Q8VZG8, form named): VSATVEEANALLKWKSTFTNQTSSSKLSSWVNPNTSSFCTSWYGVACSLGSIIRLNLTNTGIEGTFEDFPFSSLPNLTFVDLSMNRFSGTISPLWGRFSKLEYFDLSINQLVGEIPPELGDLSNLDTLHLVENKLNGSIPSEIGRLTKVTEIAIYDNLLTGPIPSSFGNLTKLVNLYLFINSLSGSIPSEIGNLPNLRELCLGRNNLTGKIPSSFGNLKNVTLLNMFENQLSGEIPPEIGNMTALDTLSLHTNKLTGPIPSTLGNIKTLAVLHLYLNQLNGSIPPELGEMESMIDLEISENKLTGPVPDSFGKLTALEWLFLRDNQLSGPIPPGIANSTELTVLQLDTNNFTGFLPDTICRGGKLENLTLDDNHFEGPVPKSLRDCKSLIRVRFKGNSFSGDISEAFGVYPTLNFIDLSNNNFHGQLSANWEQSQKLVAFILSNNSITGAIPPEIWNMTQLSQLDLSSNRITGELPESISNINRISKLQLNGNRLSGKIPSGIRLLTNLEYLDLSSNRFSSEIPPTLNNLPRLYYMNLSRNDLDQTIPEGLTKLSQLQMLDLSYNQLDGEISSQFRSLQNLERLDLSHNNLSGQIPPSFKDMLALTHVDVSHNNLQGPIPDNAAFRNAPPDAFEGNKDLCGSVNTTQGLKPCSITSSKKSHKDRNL
MIK2 ectodomain S292A/H316A (S7 binding pocket double mutant) (Q8VZG8, form named): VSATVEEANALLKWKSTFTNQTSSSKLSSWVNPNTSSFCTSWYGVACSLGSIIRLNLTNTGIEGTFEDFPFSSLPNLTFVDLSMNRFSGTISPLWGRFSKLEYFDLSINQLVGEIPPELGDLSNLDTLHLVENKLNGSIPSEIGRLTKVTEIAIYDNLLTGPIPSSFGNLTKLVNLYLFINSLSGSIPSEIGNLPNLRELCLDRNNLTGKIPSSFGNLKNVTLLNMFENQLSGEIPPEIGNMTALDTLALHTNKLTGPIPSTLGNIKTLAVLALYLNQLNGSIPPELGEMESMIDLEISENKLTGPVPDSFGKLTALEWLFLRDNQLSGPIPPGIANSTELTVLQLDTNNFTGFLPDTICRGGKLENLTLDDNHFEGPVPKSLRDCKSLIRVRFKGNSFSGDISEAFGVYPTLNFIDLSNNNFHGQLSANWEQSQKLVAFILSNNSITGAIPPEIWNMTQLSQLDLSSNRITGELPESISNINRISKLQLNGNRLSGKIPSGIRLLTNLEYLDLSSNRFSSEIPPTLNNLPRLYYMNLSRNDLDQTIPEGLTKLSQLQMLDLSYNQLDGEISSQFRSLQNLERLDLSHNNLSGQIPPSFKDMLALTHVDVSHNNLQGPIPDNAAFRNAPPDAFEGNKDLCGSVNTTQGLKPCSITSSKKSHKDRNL

Key:
Experiment in all cases: SEC; analytical size-exclusion chromatography of the recombinant MIK2 ectodomain mutants; both purified
[1] = molecular target: MIK2 ectodomain S292A (S7 binding pocket variant) (Arabidopsis thaliana) (UniProt Q8VZG8)
[2] = molecular target: MIK2 ectodomain D246G/N268A (S5 binding pocket double mutant) (Arabidopsis thaliana) (UniProt Q8VZG8)
[3] = molecular target: MIK2 ectodomain D246G (S5 binding pocket variant) (Arabidopsis thaliana) (UniProt Q8VZG8)
[4] = molecular target: MIK2 ectodomain S292A/H316A (S7 binding pocket double mutant) (Arabidopsis thaliana) (UniProt Q8VZG8)

## MIK2 ectodomain S292A (S7 binding pocket variant) (from UniProt Q8VZG8 44-709) (domain or fragment)
[1]
  binding: no binding

## MIK2 ectodomain D246G/N268A (S5 binding pocket double mutant) (from UniProt Q8VZG8 44-709) (domain or fragment)
[2]
  binding: no binding

## MIK2 ectodomain D246G (S5 binding pocket variant) (from UniProt Q8VZG8 44-709) (domain or fragment)
[3]
  binding: no binding

## MIK2 ectodomain S292A/H316A (S7 binding pocket double mutant) (from UniProt Q8VZG8 44-709) (domain or fragment)
[4]
  binding: no binding
